Source: PubChem BioAssay (NCATS)
For some assays here: This list holds what a sample rich in hits left over. Inconclusive results are not listed. This is a selection; strong and weak results do not stand in their true shares. Active and inactive are the calls of the source. Unless noted, calls come from the whole dose curve; as a rule, active = well fitted inhibition curve with a large enough effect; inconclusive = small, poorly fitted or top-dose-only effect; inactive = flat fitted curve, though single readings scatter.

The chains behind the UniProt entries cited, without tags or fusion partners. Where a name states a change or a piece, a line headed by the entry shows the natural chain unless it says otherwise.
UniProt Q99828: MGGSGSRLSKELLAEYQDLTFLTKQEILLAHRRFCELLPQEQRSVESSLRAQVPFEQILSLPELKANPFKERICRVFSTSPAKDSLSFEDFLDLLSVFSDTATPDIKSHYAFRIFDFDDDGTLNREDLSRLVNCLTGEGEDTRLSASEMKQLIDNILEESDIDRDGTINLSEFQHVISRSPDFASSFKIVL
UniProt P07203, whole entry, looked up: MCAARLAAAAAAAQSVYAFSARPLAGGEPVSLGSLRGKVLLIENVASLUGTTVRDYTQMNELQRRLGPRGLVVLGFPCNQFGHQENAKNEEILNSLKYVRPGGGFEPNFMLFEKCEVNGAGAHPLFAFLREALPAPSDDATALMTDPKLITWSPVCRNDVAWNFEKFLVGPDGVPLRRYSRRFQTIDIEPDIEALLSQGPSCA
UniProt P36969, whole entry, looked up: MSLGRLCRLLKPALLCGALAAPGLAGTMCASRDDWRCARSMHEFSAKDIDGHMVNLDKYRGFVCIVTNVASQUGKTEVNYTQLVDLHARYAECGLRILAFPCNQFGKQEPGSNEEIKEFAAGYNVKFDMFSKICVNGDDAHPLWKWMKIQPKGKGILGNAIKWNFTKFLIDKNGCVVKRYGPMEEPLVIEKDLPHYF
UniProt P04062: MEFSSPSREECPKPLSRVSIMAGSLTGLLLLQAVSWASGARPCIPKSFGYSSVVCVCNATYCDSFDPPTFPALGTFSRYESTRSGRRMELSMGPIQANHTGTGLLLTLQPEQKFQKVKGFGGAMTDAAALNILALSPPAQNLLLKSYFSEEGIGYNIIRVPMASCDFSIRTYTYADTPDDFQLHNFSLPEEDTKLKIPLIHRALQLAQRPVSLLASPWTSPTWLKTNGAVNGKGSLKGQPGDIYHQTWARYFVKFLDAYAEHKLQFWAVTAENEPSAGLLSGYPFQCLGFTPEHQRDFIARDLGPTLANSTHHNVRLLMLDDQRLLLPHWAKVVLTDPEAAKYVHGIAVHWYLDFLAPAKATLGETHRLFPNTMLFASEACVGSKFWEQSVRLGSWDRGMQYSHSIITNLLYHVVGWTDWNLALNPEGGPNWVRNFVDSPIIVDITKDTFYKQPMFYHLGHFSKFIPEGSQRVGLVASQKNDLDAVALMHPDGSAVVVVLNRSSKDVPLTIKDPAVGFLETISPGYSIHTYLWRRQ
UniProt Q07343: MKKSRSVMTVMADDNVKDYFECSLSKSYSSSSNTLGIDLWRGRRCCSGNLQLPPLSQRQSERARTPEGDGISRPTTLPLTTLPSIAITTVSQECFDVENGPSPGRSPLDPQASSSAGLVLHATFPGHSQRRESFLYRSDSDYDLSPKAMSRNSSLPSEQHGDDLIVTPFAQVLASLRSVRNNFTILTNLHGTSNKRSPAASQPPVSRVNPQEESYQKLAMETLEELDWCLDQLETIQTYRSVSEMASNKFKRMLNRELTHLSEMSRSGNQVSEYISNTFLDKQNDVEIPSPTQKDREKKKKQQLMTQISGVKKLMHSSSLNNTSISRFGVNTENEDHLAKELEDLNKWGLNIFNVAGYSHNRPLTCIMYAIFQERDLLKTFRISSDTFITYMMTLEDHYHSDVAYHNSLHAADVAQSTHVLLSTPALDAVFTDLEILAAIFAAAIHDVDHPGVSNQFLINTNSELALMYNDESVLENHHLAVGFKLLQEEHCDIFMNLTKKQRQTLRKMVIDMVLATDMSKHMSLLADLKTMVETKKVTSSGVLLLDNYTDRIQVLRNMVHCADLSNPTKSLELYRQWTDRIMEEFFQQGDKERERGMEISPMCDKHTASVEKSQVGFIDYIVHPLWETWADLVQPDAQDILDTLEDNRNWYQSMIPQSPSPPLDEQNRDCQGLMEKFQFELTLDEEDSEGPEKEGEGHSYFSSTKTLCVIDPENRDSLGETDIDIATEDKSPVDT

Key:
[1] = biological target: Calcium and integrin-binding protein 1 (Homo sapiens) (UniProt Q99828); test: Primary qHTS for Identification of Calcium Integrin Binding Protein 1 (CIB1) Competitor (AID 1508620); details: CIB1-GST / FITC-alphaIIb peptide fluorescence polarization; at 114 µM (top of the series);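 note: GST tagged CIB1 binding a fluorescein labelled alphaIIb integrin peptide tracer; top concentration of the series differs between compounds; % is set by controls: 0 for no effect and ±100 for the full control effect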
Method in brief: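 Fluorescence polarization competition: GST-tagged CIB1 (1 uM final) preincubated with compound 15 min at room temperature, then FITC-labelled alphaIIb peptide (100 nM final) added. After 15 min at room temperature, polarization read at Ex 480/Em 540.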

[2] = biological target: Glutathione peroxidase 1 (Homo sapiens) (UniProt P07203); test: Primary qHTS Assay for Inhibitors of Recombinant Selenoprotein Glutathione Peroxidase 1 (GPX1) (AID 1845191); details: recombinant GPX1, GR-coupled NADPH fluorescence, 15 min; activity, negative = inhibition: at 48.8 µM (top of the series); note: nearly all actives have a fitted effect of over 65% in size
Method in brief: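 GR-coupled assay: compounds preincubated 30 min at room temperature with GPX1, then reaction started with CHP; final 10 nM GPX1, 1 mM GSH, 0.5 mM CHP, 0.5 mM NADPH, 100 nM GR, 0.01% BSA, pH 7.5 Tris buffer. NADPH fluorescence (340/450 nm) read at 0 and 15 min.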

[3] = biological target: Phospholipid hydroperoxide glutathione peroxidase GPX4 (Homo sapiens) (UniProt P36969); test: Primary qHTS Assay for Inhibitors of Recombinant Selenoprotein Glutathione Peroxidase 4 (GPX4) (AID 1845192); details: recombinant GPX4, GR-coupled NADPH fluorescence, 15 min; at 50 µM (top of the series); note: % is set by controls: 0 for no effect and ±100 for the full control effect; nearly all actives have a fitted effect of over 65% in size
Method in brief: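 GR-coupled assay: recombinant GPX4 preincubated 30 min with compound at room temperature; final 200 nM GPX4, 1 mM GSH, 0.5 mM cumene hydroperoxide, 0.5 mM NADPH, 100 nM GR, 0.01% BSA, pH 7.5 Tris. NADPH fluorescence (340/450 nm) read at 0 and 15 min.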

[4] = biological target: Lysosomal acid glucosylceramidase (Homo sapiens) (UniProt P04062); test: Glucocerebrosidase-p2 (AID 348; in the data active = potency below about 10 µM; note: potency is the fitted concentration of half-maximal effect); details: purified GBA, blue fluorogenic substrate, 40 min
Method in brief: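 Compounds titrated from 0.6 nM upwards against 0.2 nM enzyme in pH 5.9 citric acid/KH2PO4, taurocholate, tween-20; blue fluorogenic substrate 80 uM, 40 min room temperature, stopped and read Ex 365/Em 440 for AC50.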

[5] = AP1 Signaling Pathway (AID 357; active = well fitted curve in either direction with a large enough effect, not every such curve was filed as active;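 note: ME-180 reporter cells stimulated with EGF at its EC50 level; % is set by controls: 0 for no effect and ±100 for the full control effect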); details: ME-180 (cervical carcinoma) AP-1-bla reporter, EGF-induced, beta-lactamase ratio, 5 h; at 7.69 µM (top of the series)
Method in brief: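 Read-out was the 460nm/530nm emission ratio (excitation 405nm) after CCF4 loading for 2.5 hours at room temperature. Cells carried an AP-1-driven beta-lactamase reporter, were stimulated with EC50 EGF plus compound for 5 hours, and AC50 values came from titrations.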

[6] = NFAT Signaling Pathway (AID 444; active = well fitted curve in either direction with a large enough effect, not every such curve was filed as active;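 note: carbachol stimulus at about its EC50 of 1 µM final; % is set by controls: 0 for no effect and ±100 for the full control effect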); details: Jurkat NFAT-bla M1, carbachol, beta-lactamase ratio, 5 h; at 7.69 µM (top of the series)
Method in brief: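 Jurkat cells with NFAT-driven β-lactamase reporter and co-expressed M1 receptor, stimulated with carbachol (final 1 uM, ~EC50), compound titration, 5 h at 37 °C. CCF4 loaded 1 h at RT; 460/530 nm ratio gave %activity and AC50.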

[7] = biological target: Mitogen-activated protein kinase 10 (Mus musculus) (UniProt Q61831); test: JNK3 AlphaScreen Assay (AID 530; active = well fitted curve in either direction with a large enough effect, not every such curve was filed as active;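 note: kinase came from lysate of stimulated human HepG2 cells; signal reports phosphorylation of biotinylated GST-cJun 1-79 at Ser73 with 10 µM ATP; % is set by controls: 0 for no effect and ±100 for the full control effect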); details: JNK3 lysate, c-Jun phosphorylation; at 11.4 µM (top of the series) unless noted
Method in brief: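 Pre-activated (IL-1β/TNFα) JNK3 in HepG2 lysates phosphorylates biotin-GST-cJun(1-79), 10 uM ATP; anti-phospho-cJun(Ser73) AlphaScreen read at room temperature, pH 7.6 Tris buffer. Compounds pre-incubated 15 min as titrations.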

[8] = biological target: 3',5'-cyclic-AMP phosphodiesterase 4B (Homo sapiens) (UniProt Q07343); test: qHTS Assay for Inhibitors of PDE-IV (AID 607; active = well fitted activation curve with a large enough effect in the main read-out, with a control signal flat, not every such curve was filed as active; note: % of control where 0% means no effect); details: HEK293 ACTOne CNG channel cells, membrane potential fluorescence; at 22.9 µM (top of the series)
Method in brief: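 Cell-based read-out of cAMP via a modified cyclic nucleotide-gated channel and membrane potential dye (535/590 nm) in HEK293 cells expressing PDE4 endogenously. Compounds tested up to 22.9 uM final; 100 uM RO 20-1724 reference.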

## N#Cc1ccc2c(c1)CCN(CCC1CCC(NC(=O)c3ccnc4ccccc34)CC1)C2 (configuration not stated)
[1]
  activity change, negative = inhibition: inactive: 2.23%
[2]
  activity, negative = inhibition: inactive: -0.281%
[3]
  activity change, negative = inhibition: inactive: 3.42%

## COc1ccc(-c2c(C)c(C(=O)NN3CCCCC3)nn2-c2ccc(Cl)cc2Cl)cc1
[1]
  activity change, negative = inhibition: inactive: 0.227%
[2]
  activity, negative = inhibition: inactive: 3.7%
[3]
  activity change, negative = inhibition: inactive: -4.61%

## N#Cc1ccc(-c2ccc(NC(=O)Nc3ccc(-c4ccnc5nc[nH]c45)cc3)cc2)cc1
[1]
  activity change, negative = inhibition: inactive: 2.81%
[2]
  outcome: inactive
[3]
  activity change, negative = inhibition: inactive: -4.07%

## CS(=O)(=O)c1ccc([C@@H](CC2CCCC2)C(=O)Nc2cnccn2)cc1Cl
[2]
  activity, negative = inhibition: inactive: -23.2%

## O=C(Nc1cccc(C(F)(F)F)c1)c1ccccc1NCc1ccncc1
[1]
  activity change, negative = inhibition: inactive: 4.01%
[3]
  activity change, negative = inhibition: inactive: -22.6%

## CCCCNc1c(CN)cnc2cc(Cl)ccc12
[4]
  Potency: active: 4.78 µM
[5]
  activity change, negative = inhibition: inactive: 4.8%
[6]
  activity change, negative = inhibition: inactive: 22.9%
[7]
  activity change, negative = inhibition: inactive: -3.34%
[8]
  activation (PDE inhibition): inactive: 13.9%
